# Values from PubChem BioAssay AID1224828 (NIAID, 2016).
# Screen: 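Knock-downs that increase or decrease LPS-induced p65 nuclear translocation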 (primary screen)
# Cells: mouse RAW264.7 G9 macrophage reporter cells (GFP-p65, Tnf promoter-mCherry)
# Reagents: siRNA pool against mouse genes, 100 nM
# Time to read-out: 2 days siRNA transfection, then 40 min LPS before fixation
# Conditions: LPS (Salmonella minnesota R595) at 10 ng/ml
# Measurement: 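Imaged p65 nuclear translocation ratio, normalised to the plate median, converted to robust z-scores and averaged across two replicates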
# Direction: p65 translocation robust z-score: higher = more nuclear NF-kappaB p65 after LPS than the plate median; nuclear/cytoplasmic p65 ratio: higher = more nuclear NF-kappaB p65
# Active means: 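Called active when z exceeds 3.3 or falls under -1.56 (median of Tlr4 controls), giving activity score of at least 50; no calls for control wells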
# Meaning of the calls: active = hit (p65 shift raised or lowered); inactive = no clear change
# The deposit covers about 17,000 reagents; shown is a random part of them. Of all reagents, 762 (4.5%) were called active. 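Active calls include both raised and lowered p65 entry, mostly lowered; wells with fewer than 50 cells lack a z-score.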 Raw values vary from plate to plate and are shown uncorrected. A number with no mark means an inactive call. The numbers tell different reagents against one gene apart.
target,reagent,p65 translocation robust z-score,"nuclear/cytoplasmic p65 ratio, rep 1","nuclear/cytoplasmic p65 ratio, rep 2",low cell count flag
Hbegf (GeneID 15200),1,-1.08,1.35,1.22,enough cells to score
Cfap300 (GeneID 234912),1,1.82,1.97,1.84,enough cells to score
Nim1k (GeneID 245269),1,-0.18,1.71,1.32,enough cells to score
Sdf4 (GeneID 20318),1,,1.4,1.09,fewer than 50 cells per well; well left out of scoring
St8sia5 (GeneID 225742),1,-0.2,1.42,1.23,enough cells to score
Lrrtm4 (GeneID 243499),1,-1.31,1.52,1.13,enough cells to score
Arhgef16 (GeneID 230972),1,-0.75,1.46,1.55,enough cells to score
Ankrd42 (GeneID 73845),1,-0.11,1.25,1.55,enough cells to score
Pla2g5 (GeneID 18784),1,-0.58,1.37,1.38,enough cells to score
Smagp (GeneID 207818),1,0,1.62,1.8,enough cells to score
Clca1 (GeneID 23844),1,-1,1.43,1.63,enough cells to score
Copb1 (GeneID 70349),1,,1.04,1.66,fewer than 50 cells per well; well left out of scoring
Suv39h1 (GeneID 20937),1,-1.2,1.37,1.39,enough cells to score
Rpl11 (GeneID 67025),1,-1.72 (active),1.25,1.3,enough cells to score
Tmem81 (GeneID 74626),1,0.78,1.36,1.26,enough cells to score
Slc25a44 (GeneID 229517),1,-0.4,1.24,1.52,enough cells to score
Lsm10 (GeneID 116748),1,-1.55,1.48,1.34,enough cells to score
Zfx (GeneID 22764),1,-1.14,1.37,1.33,enough cells to score
Casd1 (GeneID 213819),1,-1.01,1.48,1.58,enough cells to score
Or51q1c (GeneID 259124),1,-0.66,1.37,1.18,enough cells to score
Fbxo8 (GeneID 50753),1,1,1.6,1.5,enough cells to score
Hrh4 (GeneID 225192),1,0.71,1.57,1.73,enough cells to score
Prss44 (GeneID 73336),1,0.06,1.4,1.43,enough cells to score
Fv4 (GeneID 14352),1,1.13,1.79,1.59,enough cells to score
Plcxd1 (GeneID 403178),1,,1.73,1.81,fewer than 50 cells per well; well left out of scoring
Rrp15 (GeneID 67223),1,0.68,1.11,1.33,enough cells to score
Ing1 (GeneID 26356),1,-0.62,1.4,1.29,enough cells to score
Mapkapk5 (GeneID 17165),1,,1.44,1.45,fewer than 50 cells per well; well left out of scoring
Kif4 (GeneID 16571),1,-0.34,1.49,1.28,enough cells to score
Pon2 (GeneID 330260),1,-0.12,1.48,1.39,enough cells to score
Tex16 (GeneID 83556),1,-0.86,1.26,1.09,enough cells to score
Actr2 (GeneID 66713),1,0.09,1.62,1.64,enough cells to score
Mrps11 (GeneID 67994),1,0.21,1.43,1.37,enough cells to score
Zdhhc2 (GeneID 70546),1,-0.6,1.46,1.18,enough cells to score
Pam (GeneID 18484),1,0.32,1.42,1.33,enough cells to score
Cox7b (GeneID 66142),1,-0.51,1.58,1.61,enough cells to score
Or4f53 (GeneID 258390),1,,1.31,1.27,fewer than 50 cells per well; well left out of scoring
Phtf2 (GeneID 68770),1,0.9,1.63,1.52,enough cells to score
Nceh1 (GeneID 320024),1,-1.12,1.45,1.44,enough cells to score
Atg10 (GeneID 66795),1,-1.16,1.45,1.33,enough cells to score
Vmn1r219 (GeneID 171272),1,,1.27,1.36,fewer than 50 cells per well; well left out of scoring
Or4g7 (GeneID 258395),1,-0.73,1.52,1.31,enough cells to score
Vti1a (GeneID 53611),1,-0.01,1.48,1.15,enough cells to score
Vti1a (GeneID 53611),2,,1.33,1.5,fewer than 50 cells per well; well left out of scoring
Or8h9 (GeneID 258764),1,0.18,1.69,1.6,enough cells to score
Lrrc41 (GeneID 230654),1,2.53,1.87,1.98,enough cells to score
Rogdi (GeneID 66049),1,-0.66,1.67,1.44,enough cells to score
1700052K11Rik (GeneID 73431),1,,1.58,1.7,fewer than 50 cells per well; well left out of scoring
Palm (GeneID 18483),1,-0.65,1.32,1.2,enough cells to score
A130010J15Rik (GeneID 319266),1,1.52,1.61,1.71,enough cells to score
Or6d14 (GeneID 258754),1,-1.17,1.45,1.25,enough cells to score
Gatd1 (GeneID 213350),1,1.5,1.72,2.18,enough cells to score
Tshb (GeneID 22094),1,1.41,1.61,1.89,enough cells to score
Zbtb1 (GeneID 268564),1,1.58,1.66,1.4,enough cells to score
Etv1 (GeneID 14009),1,0.16,1.52,1.36,enough cells to score
Ap3m1 (GeneID 55946),1,2.34,1.83,1.96,enough cells to score
Ephx3 (GeneID 71932),1,-0.06,1.58,1.63,enough cells to score
Nlrp9c (GeneID 330490),1,-0.59,1.32,1.31,enough cells to score
Coa8 (GeneID 68020),1,-0.01,1.41,1.45,enough cells to score
